Measured values as given in the supplement of paper PMC10849652.
The list shows a part of the results.

By UniProt entry, the sequences of proteins in these tests, tags left out. Where a name states a change or a piece, a line headed by the entry shows the natural chain unless it says otherwise.
UniProt Q08380: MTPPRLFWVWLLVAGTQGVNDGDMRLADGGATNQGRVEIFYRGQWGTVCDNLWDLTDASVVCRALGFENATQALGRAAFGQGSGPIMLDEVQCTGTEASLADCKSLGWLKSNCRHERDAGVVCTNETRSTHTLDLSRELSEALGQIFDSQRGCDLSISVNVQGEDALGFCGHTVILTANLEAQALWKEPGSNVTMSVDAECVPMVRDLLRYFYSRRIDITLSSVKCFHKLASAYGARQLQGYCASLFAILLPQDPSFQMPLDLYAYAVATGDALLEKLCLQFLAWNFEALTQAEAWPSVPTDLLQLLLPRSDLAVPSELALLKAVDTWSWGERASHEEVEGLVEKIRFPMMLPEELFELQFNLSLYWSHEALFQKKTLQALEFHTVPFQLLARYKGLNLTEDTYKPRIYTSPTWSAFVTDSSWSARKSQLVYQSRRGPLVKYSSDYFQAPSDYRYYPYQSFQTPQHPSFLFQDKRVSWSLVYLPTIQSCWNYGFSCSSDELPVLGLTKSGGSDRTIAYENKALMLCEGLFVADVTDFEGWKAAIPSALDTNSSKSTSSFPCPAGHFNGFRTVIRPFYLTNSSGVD
UniProt P83369: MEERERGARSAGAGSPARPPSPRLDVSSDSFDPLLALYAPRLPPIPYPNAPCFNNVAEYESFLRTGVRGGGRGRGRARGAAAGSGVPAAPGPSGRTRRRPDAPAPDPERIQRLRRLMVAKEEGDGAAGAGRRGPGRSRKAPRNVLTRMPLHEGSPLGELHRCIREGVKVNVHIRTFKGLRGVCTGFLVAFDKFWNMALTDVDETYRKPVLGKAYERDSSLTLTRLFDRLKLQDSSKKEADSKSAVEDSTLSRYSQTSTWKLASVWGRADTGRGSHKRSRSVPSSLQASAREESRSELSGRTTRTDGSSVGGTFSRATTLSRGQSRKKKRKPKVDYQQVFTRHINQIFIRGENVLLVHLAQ
UniProt O94898: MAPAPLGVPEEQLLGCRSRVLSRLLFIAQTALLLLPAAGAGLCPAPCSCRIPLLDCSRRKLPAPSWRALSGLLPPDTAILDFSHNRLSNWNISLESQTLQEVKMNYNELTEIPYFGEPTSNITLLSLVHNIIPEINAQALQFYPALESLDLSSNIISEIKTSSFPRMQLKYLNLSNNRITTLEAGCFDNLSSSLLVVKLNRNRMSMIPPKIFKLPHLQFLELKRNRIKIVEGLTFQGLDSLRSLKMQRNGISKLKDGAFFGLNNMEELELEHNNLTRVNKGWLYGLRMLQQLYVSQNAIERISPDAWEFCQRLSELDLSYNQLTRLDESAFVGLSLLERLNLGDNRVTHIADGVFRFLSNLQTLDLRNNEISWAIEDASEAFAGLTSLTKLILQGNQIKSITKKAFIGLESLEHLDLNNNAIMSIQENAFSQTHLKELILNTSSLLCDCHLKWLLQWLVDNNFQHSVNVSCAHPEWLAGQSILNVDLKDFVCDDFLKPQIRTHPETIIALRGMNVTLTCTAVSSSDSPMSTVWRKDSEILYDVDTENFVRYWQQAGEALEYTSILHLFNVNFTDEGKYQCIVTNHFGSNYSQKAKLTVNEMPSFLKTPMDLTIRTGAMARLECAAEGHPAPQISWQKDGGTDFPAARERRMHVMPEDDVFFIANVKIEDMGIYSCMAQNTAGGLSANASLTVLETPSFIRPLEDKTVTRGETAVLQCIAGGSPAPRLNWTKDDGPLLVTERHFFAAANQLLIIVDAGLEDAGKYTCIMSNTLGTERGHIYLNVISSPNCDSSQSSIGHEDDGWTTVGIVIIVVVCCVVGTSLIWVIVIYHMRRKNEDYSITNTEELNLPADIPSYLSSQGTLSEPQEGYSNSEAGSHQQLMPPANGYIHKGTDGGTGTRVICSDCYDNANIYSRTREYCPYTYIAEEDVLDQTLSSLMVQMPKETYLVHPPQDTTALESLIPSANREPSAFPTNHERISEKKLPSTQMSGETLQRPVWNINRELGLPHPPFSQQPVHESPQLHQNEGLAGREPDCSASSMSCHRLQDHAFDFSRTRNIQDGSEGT
UniProt Q14114: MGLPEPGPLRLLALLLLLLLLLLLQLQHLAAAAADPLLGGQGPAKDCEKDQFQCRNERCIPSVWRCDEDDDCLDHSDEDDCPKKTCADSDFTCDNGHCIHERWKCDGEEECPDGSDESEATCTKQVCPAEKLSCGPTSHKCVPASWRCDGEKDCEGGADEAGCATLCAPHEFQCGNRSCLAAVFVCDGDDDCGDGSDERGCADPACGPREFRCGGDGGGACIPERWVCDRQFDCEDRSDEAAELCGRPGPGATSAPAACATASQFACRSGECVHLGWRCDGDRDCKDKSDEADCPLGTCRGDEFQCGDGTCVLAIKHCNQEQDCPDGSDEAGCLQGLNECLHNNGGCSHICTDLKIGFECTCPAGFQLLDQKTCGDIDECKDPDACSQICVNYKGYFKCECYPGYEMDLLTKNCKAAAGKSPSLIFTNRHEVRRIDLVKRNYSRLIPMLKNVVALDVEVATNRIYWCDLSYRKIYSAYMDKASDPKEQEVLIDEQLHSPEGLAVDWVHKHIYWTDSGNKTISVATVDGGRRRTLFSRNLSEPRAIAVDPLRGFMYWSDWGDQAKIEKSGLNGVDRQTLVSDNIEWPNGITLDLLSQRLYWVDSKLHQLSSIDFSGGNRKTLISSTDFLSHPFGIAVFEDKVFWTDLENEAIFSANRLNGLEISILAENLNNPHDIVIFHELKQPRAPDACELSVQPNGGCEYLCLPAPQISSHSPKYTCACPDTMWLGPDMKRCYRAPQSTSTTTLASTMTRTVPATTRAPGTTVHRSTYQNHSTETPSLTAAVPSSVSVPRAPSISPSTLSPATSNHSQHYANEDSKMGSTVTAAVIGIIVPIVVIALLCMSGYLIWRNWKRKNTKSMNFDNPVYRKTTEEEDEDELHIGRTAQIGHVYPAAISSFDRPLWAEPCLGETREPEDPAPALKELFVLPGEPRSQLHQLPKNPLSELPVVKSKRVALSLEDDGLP
UniProt Q9BU23: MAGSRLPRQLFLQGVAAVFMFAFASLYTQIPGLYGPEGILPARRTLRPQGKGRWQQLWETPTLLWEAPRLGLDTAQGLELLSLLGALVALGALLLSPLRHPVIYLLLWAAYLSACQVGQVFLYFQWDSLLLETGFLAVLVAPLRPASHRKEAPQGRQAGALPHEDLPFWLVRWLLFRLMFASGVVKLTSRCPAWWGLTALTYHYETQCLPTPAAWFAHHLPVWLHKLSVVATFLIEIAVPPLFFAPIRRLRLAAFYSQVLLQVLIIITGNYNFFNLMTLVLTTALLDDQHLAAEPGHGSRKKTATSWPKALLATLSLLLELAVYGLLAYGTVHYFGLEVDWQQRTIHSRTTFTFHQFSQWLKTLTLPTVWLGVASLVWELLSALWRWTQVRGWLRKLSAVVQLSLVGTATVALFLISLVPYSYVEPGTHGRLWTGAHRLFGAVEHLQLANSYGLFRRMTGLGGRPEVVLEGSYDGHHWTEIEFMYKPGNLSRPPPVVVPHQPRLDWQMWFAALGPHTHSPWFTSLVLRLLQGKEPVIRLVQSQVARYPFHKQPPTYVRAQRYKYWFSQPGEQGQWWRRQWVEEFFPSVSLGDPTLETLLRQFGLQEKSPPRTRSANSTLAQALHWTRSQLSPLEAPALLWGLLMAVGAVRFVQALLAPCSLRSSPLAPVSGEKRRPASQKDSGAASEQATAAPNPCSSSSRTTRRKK
UniProt Q6P1Q0: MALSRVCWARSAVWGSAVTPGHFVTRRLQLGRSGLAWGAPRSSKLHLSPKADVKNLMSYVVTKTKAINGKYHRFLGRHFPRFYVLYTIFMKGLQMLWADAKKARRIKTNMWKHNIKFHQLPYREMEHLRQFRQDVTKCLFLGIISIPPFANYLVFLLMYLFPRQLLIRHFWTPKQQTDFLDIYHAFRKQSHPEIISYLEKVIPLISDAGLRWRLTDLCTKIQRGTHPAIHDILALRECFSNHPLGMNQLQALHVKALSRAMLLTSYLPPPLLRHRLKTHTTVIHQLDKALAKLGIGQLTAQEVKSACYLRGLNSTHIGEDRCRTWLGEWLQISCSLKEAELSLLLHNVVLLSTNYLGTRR
UniProt Q9UJU2, whole entry, looked up: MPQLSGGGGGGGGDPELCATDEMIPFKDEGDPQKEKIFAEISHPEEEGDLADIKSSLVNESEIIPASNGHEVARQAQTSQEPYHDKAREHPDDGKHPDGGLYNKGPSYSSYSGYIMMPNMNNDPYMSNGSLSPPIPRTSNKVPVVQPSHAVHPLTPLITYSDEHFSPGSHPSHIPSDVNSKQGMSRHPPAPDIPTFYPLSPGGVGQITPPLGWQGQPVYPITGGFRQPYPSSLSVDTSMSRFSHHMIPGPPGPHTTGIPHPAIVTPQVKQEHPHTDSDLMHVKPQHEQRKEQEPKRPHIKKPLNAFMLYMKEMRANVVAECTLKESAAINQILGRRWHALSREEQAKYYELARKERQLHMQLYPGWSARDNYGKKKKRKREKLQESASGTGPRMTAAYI
UniProt Q969L4: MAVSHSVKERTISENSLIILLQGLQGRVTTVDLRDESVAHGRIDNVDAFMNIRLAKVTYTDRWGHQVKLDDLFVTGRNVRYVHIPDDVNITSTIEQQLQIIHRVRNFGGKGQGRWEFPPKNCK
UniProt P17931, whole entry, looked up: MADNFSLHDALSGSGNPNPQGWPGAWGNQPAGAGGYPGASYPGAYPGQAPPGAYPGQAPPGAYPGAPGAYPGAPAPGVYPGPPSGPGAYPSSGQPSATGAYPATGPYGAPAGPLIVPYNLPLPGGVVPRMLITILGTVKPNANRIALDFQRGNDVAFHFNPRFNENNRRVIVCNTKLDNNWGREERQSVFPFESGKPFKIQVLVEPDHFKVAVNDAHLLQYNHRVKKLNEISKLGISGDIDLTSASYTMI
UniProt Q9Y546: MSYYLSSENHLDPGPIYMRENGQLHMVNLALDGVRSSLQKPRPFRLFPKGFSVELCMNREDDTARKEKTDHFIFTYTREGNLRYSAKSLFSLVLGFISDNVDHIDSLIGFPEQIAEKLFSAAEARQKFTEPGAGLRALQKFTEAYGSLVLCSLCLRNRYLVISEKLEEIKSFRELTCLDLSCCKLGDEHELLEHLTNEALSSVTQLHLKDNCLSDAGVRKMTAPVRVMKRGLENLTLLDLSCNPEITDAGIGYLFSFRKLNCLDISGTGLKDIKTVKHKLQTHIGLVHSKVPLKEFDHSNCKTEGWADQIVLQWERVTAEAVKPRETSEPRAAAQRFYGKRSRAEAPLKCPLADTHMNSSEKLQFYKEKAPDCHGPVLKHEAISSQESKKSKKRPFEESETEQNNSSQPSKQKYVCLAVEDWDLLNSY
UniProt Q5SW96: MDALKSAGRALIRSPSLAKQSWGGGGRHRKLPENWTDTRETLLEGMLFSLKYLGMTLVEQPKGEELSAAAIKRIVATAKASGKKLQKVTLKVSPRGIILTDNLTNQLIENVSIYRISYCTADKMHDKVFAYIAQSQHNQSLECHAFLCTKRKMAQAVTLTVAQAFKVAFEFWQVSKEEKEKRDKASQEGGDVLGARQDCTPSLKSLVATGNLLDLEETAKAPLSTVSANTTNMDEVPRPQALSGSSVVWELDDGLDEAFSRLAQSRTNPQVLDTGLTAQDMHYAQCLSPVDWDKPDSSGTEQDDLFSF
UniProt Q8TDW0: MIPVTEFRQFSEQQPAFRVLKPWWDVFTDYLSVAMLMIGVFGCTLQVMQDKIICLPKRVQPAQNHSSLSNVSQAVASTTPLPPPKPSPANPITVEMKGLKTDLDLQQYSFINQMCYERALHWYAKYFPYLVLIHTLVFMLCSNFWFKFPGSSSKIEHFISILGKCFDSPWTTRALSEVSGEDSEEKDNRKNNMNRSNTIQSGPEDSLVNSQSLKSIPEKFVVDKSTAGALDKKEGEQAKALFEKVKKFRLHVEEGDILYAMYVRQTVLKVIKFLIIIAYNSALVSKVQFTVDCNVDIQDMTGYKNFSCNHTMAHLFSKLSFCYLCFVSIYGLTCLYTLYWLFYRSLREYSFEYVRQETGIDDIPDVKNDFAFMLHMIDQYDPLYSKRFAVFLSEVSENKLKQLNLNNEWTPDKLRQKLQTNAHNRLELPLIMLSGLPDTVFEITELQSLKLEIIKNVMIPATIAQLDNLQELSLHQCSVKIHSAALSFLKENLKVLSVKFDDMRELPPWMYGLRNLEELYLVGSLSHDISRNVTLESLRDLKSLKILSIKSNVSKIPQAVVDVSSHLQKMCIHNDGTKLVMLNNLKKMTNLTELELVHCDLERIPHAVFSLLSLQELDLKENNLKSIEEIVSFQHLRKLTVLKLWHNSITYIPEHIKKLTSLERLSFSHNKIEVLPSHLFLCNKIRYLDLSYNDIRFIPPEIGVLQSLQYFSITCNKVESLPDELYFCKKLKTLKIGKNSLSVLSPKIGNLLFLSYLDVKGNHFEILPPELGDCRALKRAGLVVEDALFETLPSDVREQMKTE

Experiments:
Test in all cases: log2 fold change, soluble protein after heating vs DMSO (PISA); higher = thermal stabilisation; K562 lysate, 10 uM; active = over 0.2 and 3.5 SD of the protein, either way, in both replicates (recomputed)
[1] = compound: CN1CC[C@H](c2c(O)cc(O)c3c(=O)cc(-c4ccccc4Cl)oc23)[C@H](O)C1 [alvocidib]
How it was run: (§1)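 A 30 min treatment with 10 μM compound was applied to crude K562 extract at 1 mg/mL protein in PBS pH 7.4 with 1 mM MgCl2. Heating for 3 min spanned 48°C-58°C, after which aliquots were pooled, adjusted to 0.5% NP-40 at 4°C and spun at 21,000xg for 90 min. TMTpro 16plex LC-MS/MS of the supernatant, with channel sums equalised, gave values recorded as log-two fold change in thermal stability against solvent controls, from duplicates.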

[2] = compound: CNC(=O)C1=CC=CC=C1NC2=NC(=NC=C2Cl)NC3=C(C=C(C=C3)N4CCOCC4)OC
How it was run: as §1

[3] = compound: CNC(=O)c1ccc(Nc2ncc(C(F)(F)F)c(NCc3nccnc3N(C)S(C)(=O)=O)n2)cc1 [defactinib]
How it was run: as §1

[4] = compound: CNc1nc(-c2ccc3c(N)n[nH]c3c2)cc(N2C[C@@H](C(=O)NC3CCCCC3)CC[C@H]2C)n1
How it was run: as §1

[5] = compound: COC(=O)N[C@@H](C)CNc1nccc(-c2cn(C(C)C)nc2-c2cc(Cl)cc(NS(C)(=O)=O)c2F)n1 [encorafenib]
How it was run: as §1

[6] = compound: COC(=O)[C@H](CCSC)NC(=O)C1=C(C=C(C=C1)NC[C@H](CS)N)C2=CC=CC=C2
How it was run: as §1

[7] = compound: COc1cc(Nc2ncc3c(n2)-c2ccc(Cl)cc2C(c2c(F)cccc2OC)=NC3)ccc1C(=O)O [alisertib]
How it was run: as §1

[8] = compound: COc1cc2nc(-c3cc(F)ccc3O)nc(N[C@@H]3CNC[C@H]3C(C)(C)O)c2cc1OC
How it was run: as §1

[9] = compound: COc1cc2ncnc(Nc3ccc(F)c(Cl)c3)c2cc1OCCCN1CCOCC1 [gefitinib]
How it was run: as §1

[10] = compound: CS(=O)(=O)CCNCc1ccc(-c2ccc3ncnc(Nc4ccc(OCc5cccc(F)c5)c(Cl)c4)c3c2)o1 [lapatinib]
How it was run: as §1

[11] = compound: C[C@@H](Oc1cc(-c2cnn(C3CCNCC3)c2)cnc1N)c1c(Cl)ccc(F)c1Cl [crizotinib]
How it was run: as §1

[12] = compound: C[C@H](C1=CC=C(C=C1)C(=O)NC2=C3C=CNC3=NC=C2)N
How it was run: as §1

[13] = compound: C[C@H](Nc1ncnc2nc[nH]c12)c1cc2cccc(Cl)c2c(=O)n1-c1ccccc1 [duvelisib]
How it was run: as §1

[14] = compound: Cc1cc(Nc2cc(CN3CCOCC3)c3nc(C)c(Cc4ccc(Cl)cc4F)n3n2)n[nH]1 [gandotinib]
How it was run: as §1

[15] = compound: Cc1cc(Nc2cc(N3CCN(C)CC3)nc(Sc3ccc(NC(=O)C4CC4)cc3)n2)n[nH]1 [tozasertib]
How it was run: as §1

[16] = compound: Cc1ccc(-n2nc(C(C)(C)C)cc2NC(=O)Nc2ccc(OCCN3CCOCC3)c3ccccc23)cc1 [doramapimod]
How it was run: as §1

[17] = compound: Cc1cccc(CC(=O)N2CCc3c2ccc(-c2cn(C)c4ncnc(N)c24)c3F)n1
How it was run: as §1

[18] = compound: CN1CCc2c(c3ccccc3n2Cc2ccc(C(=O)NO)cc2)C1 [Tubastatin A]
How it was run: as §1

[19] = compound: CS(=O)(=O)N1CCN(Cc2cc3nc(-c4cccc5[nH]ncc45)nc(N4CCOCC4)c3s2)CC1 [pictilisib]
How it was run: as §1

[20] = compound: Cc1ccc(NC(=O)c2ccc(CN3CC[C@H](N(C)C)C3)c(C(F)(F)F)c2)cc1Nc1nccc(-c2cncnc2)n1 [bafetinib]
How it was run: as §1

Target	log2 fold change [1]	log2 fold change [2]	log2 fold change [3]	log2 fold change [4]	log2 fold change [5]	log2 fold change [6]	log2 fold change [7]	log2 fold change [8]	log2 fold change [9]	log2 fold change [10]	log2 fold change [11]	log2 fold change [12]	log2 fold change [13]	log2 fold change [14]	log2 fold change [15]	log2 fold change [16]	log2 fold change [17]	log2 fold change [18]	log2 fold change [19]	log2 fold change [20]
LGALS3BP (UniProt Q08380)	inactive: -0.187	inactive: -0.234	inactive: -0.133	active: -0.571	inactive: 0.023	inactive: 0.082	inactive: -0.074	inactive: 0.092	inactive: 0.019	inactive: -0.239	inactive: 0.204	inactive: 0.035	inactive: -0.149	inactive: 0.197	inactive: 0.115	inactive: -0.087	inactive: 0.53	–	–	–
LSM11 (UniProt P83369)	inactive: 0.134	inactive: -0.15	inactive: -0.119	inactive: 0.009	inactive: 0.082	inactive: 0.041	–	–	–	–	inactive: 0.025	inactive: -0.123	inactive: 0.009	inactive: 0.039	inactive: 0.011	inactive: 0.123	inactive: -0.394	–	–	–
LRRC7 (UniProt Q96NW7)	inactive: 0.069	–	inactive: 0.251	inactive: 0.058	inactive: -0.103	inactive: 0.026	–	inactive: -0.016	–	inactive: -0.048	inactive: 0.065	inactive: -0.025	inactive: 0.083	inactive: -0.07	inactive: -0.018	inactive: 0.001	inactive: 0.093	inactive: 0.079	inactive: 0.041	inactive: 0.112
LPGAT1 (UniProt Q92604)	inactive: 0.123	inactive: -0.094	–	inactive: 0.087	inactive: 0.205	inactive: 0.051	inactive: 0.155	–	inactive: 0.227	–	–	inactive: 0.034	inactive: -0.067	inactive: -0.143	inactive: -0.094	–	inactive: -0.009	inactive: 0.026	–	–
LNX2 (UniProt Q8N448)	inactive: 0.053	inactive: 0.047	inactive: -0.053	inactive: 0.156	inactive: -0.006	inactive: 0.323	inactive: 0.022	–	inactive: -0.007	–	–	inactive: -0.031	inactive: -0.277	inactive: -0.167	inactive: 0.123	–	inactive: 0.173	–	inactive: 0.062	inactive: -0.044
LRIG2 (UniProt O94898)	inactive: -0.029	inactive: -0.002	inactive: 0.002	inactive: 0.026	inactive: 0.058	inactive: -0.05	inactive: 0.173	inactive: 0.033	inactive: 0.076	inactive: -0.015	inactive: 0.017	inactive: -0.036	inactive: -0.055	inactive: 0.077	inactive: 0.054	inactive: 0.017	inactive: 0.061	inactive: -0.076	–	–
LRP8 (UniProt Q14114)	inactive: -0.133	–	inactive: -0.069	–	inactive: -0.028	inactive: -0.197	–	inactive: -0.009	–	inactive: -0.21	inactive: -0.064	inactive: -0.031	–	inactive: -0.033	inactive: -0.019	inactive: -0.035	inactive: 0.102	inactive: 0.046	inactive: -0.207	inactive: 0.034
LMF2 (UniProt Q9BU23)	inactive: -0.087	inactive: 0.06	inactive: 0.01	inactive: 0.125	inactive: 0.033	inactive: -0.088	inactive: 0.041	–	inactive: 0.117	–	inactive: 0.014	inactive: -0.208	inactive: -0.024	inactive: 0.062	inactive: 0.089	inactive: 0.047	inactive: 0.169	–	inactive: -0.022	inactive: -0.051
LETMD1 isoform 7 (UniProt Q6P1Q0)	inactive: -0.013	inactive: 0.085	inactive: -0.009	inactive: 0.018	inactive: -0.018	inactive: 0.027	inactive: 0.013	inactive: -0.121	inactive: -0.038	inactive: 0.015	inactive: -0.115	inactive: -0.024	inactive: -0.051	inactive: 0.05	inactive: 0.021	inactive: 0.073	inactive: 0.075	inactive: 0.065	inactive: -0.132	inactive: -0.142
LEF1 (UniProt Q9UJU2)	inactive: -0.013	–	inactive: 0.029	–	–	–	–	–	–	–	inactive: -0.023	inactive: 0.22	–	inactive: -0.078	–	inactive: 0.025	inactive: -0.267	inactive: -0.303	–	–
LSM10 (UniProt Q969L4)	inactive: -0.052	inactive: -0.215	–	inactive: -0.215	–	–	–	inactive: 0.121	–	inactive: 0.079	–	inactive: 0.028	inactive: -0.116	inactive: 0.027	–	–	inactive: 0.022	inactive: -0.012	inactive: 0.047	inactive: -0.031
LONP1 (UniProt P36776)	inactive: 0.018	inactive: -0.015	inactive: 0.014	inactive: 0.006	inactive: 0.006	inactive: -0.035	inactive: 0.005	inactive: -0.029	inactive: -0.002	inactive: -0.046	inactive: 0.052	inactive: -0.016	inactive: -0.01	inactive: -0.018	inactive: 0.024	inactive: -0.039	inactive: -0.033	inactive: 0.027	inactive: -0.002	inactive: 0.002
LGALS3 (UniProt P17931)	inactive: 0.044	inactive: 0.005	inactive: 0.088	inactive: -0.373	inactive: 0.07	inactive: 0.247	inactive: 0.034	inactive: 0.003	inactive: 0.031	inactive: -0.044	inactive: 0.016	inactive: 0.312	inactive: -0.367	inactive: -0.038	inactive: -0.132	inactive: 0.067	inactive: -0.056	inactive: 0.128	inactive: 0.227	inactive: -0.064
LRRC42 (UniProt Q9Y546)	inactive: 0.028	inactive: 0.165	inactive: 0.024	inactive: -0.077	inactive: 0.112	inactive: -0.289	inactive: -0.042	–	inactive: 0.014	–	inactive: -0.011	inactive: 0.044	inactive: -0.004	inactive: -0.149	inactive: 0.125	inactive: 0.005	inactive: -0.045	inactive: -0.005	–	–
LRP10 (UniProt Q7Z4F1)	inactive: -0.084	inactive: 0.215	–	inactive: -0.022	inactive: 0.313	inactive: -0.072	–	–	–	–	–	inactive: 0.072	inactive: -0.008	inactive: -0.133	inactive: -0.144	–	inactive: -0.089	inactive: 0.062	inactive: -0.006	inactive: -0.191
LATS1 (UniProt O95835)	inactive: -0.045	inactive: 0.085	–	inactive: 0.069	–	–	inactive: 0.171	–	inactive: 0.045	–	–	inactive: 0.215	inactive: -0.071	inactive: -0.206	–	–	inactive: 0.077	–	–	–
LIMK1 (UniProt P53667)	inactive: -0.135	–	inactive: -0.053	inactive: -0.085	active: 0.489	inactive: -0.086	inactive: -0.261	inactive: -0.203	inactive: 0.106	inactive: 0.049	inactive: 0.276	inactive: 0.029	inactive: 0.109	inactive: -0.03	inactive: 0.096	inactive: -0.009	inactive: 0.138	inactive: 0	inactive: -0.087	inactive: -0.348
LPIN3 isoform 2 (UniProt Q9BQK8)	inactive: 0.057	inactive: 0.009	inactive: -0.09	inactive: -0.046	inactive: 0.041	inactive: -0.022	inactive: 0.006	inactive: 0.046	inactive: 0.091	inactive: -0.038	inactive: -0.062	inactive: 0.004	inactive: -0.017	inactive: -0.044	inactive: 0.045	inactive: -0.025	inactive: -0.034	inactive: -0.015	inactive: -0.036	inactive: 0.049
LDLRAP1 (UniProt Q5SW96)	inactive: 0.049	inactive: 0.123	inactive: 0.069	inactive: 0.003	inactive: -0.016	inactive: -0.013	inactive: 0	–	inactive: 0.03	–	inactive: -0.065	inactive: 0.045	inactive: -0.021	inactive: 0.116	inactive: -0.01	inactive: 0.052	inactive: -0.032	inactive: 0.015	inactive: 0.198	inactive: -0.061
LRRC8E (UniProt Q6NSJ5)	inactive: 0.075	–	inactive: -0.085	–	inactive: 0.192	inactive: -0.113	–	–	–	–	inactive: 0.022	inactive: -0.033	–	inactive: 0.161	inactive: 0.135	inactive: -0.058	inactive: 0.307	inactive: -0.032	–	–
LRBA, A0A494BZW2	inactive: -0.014	inactive: 0.079	inactive: -0.044	inactive: -0.021	inactive: -0.056	inactive: 0.002	inactive: 0.207	inactive: 0.036	inactive: 0.145	inactive: -0.072	inactive: -0.38	inactive: -0.071	inactive: 0.014	inactive: 0	inactive: -0.065	inactive: 0.477	inactive: -0.025	inactive: 0.281	inactive: -0.03	inactive: -0.035
LRRC8C (UniProt Q8TDW0)	inactive: 0.045	inactive: -0.011	inactive: -0.019	inactive: -0.048	inactive: 0.041	inactive: 0.003	inactive: 0.121	inactive: 0.029	inactive: -0.135	inactive: 0.114	inactive: 0.018	inactive: -0.027	inactive: 0.133	inactive: -0.022	inactive: -0.051	inactive: -0.001	inactive: -0.002	inactive: 0.013	inactive: -0.041	inactive: -0.207
LRFN4 (UniProt Q6PJG9)	inactive: 0.064	inactive: 0.098	inactive: 0.027	inactive: -0.141	inactive: -0.025	inactive: -0.151	–	inactive: 0.049	–	inactive: 0.162	inactive: -0.028	inactive: -0.002	inactive: 0.012	inactive: -0.139	inactive: 0.024	inactive: 0.079	inactive: 0.074	–	–	–

Random excerpt: 2 records from the list.
Target	log2 fold change [1]	log2 fold change [2]	log2 fold change [3]	log2 fold change [4]	log2 fold change [5]	log2 fold change [6]	log2 fold change [7]	log2 fold change [8]	log2 fold change [9]	log2 fold change [10]	log2 fold change [11]	log2 fold change [12]	log2 fold change [13]	log2 fold change [14]	log2 fold change [15]	log2 fold change [16]	log2 fold change [17]	log2 fold change [18]	log2 fold change [19]	log2 fold change [20]
LMF2 (UniProt Q9BU23)	inactive: -0.087	inactive: 0.06	inactive: 0.01	inactive: 0.125	inactive: 0.033	inactive: -0.088	inactive: 0.041	–	inactive: 0.117	–	inactive: 0.014	inactive: -0.208	inactive: -0.024	inactive: 0.062	inactive: 0.089	inactive: 0.047	inactive: 0.169	–	inactive: -0.022	inactive: -0.051
LRFN4 (UniProt Q6PJG9)	inactive: 0.064	inactive: 0.098	inactive: 0.027	inactive: -0.141	inactive: -0.025	inactive: -0.151	–	inactive: 0.049	–	inactive: 0.162	inactive: -0.028	inactive: -0.002	inactive: 0.012	inactive: -0.139	inactive: 0.024	inactive: 0.079	inactive: 0.074	–	–	–
